# Reference: the supplement of paper PMC8728848
# The other results are listed elsewhere or left out.
# B1: DC-Sign-R (Homo sapiens), Q9H2X3 (protein)
# chain: MSDSKEPRVQQLGLLEEDPTTSGIRLFPRDFQFQQIHGHKSSTGCLGHGALVLQLLSFMLLAGVLVAILVQVSKVPSSLSQEQSEQDAIYQNLTQLKAAVGELSEKSKLQEIYQELTQLKAAVGELPEKSKLQEIYQELTRLKAAVGELPEKSKLQEIYQELTRLKAAVGELPEKSKLQEIYQELTRLKAAVGELPEKSKLQEIYQELTELKAAVGELPEKSKLQEIYQELTQLKAAVGELPDQSKQQQIYQELTDLKTAFERLCRHCPKDWTFFQGNCYFMSNSQRNWHDSVTACQEVRAQLVVIKTAEEQNFLQLQTSRSNRFSWMGLSDLNQEGTWQWVDGSPLSPSFQRYWNSGEPNNSGNEDCAEFSGSGWNDNRCDVDNYWICKKPAACFRDE
# Key:
# Test in all cases: glycan array binding signal (z-score within array); higher = stronger binding
# Conditions in all cases: glycan notation: IUPAC condensed, linker removed
# [1] = target: Fuc(a1-2)Gal(b1-4)GlcNAc(b1-3)Gal(b1-4)GlcNAc(b1-2)Man(a1-3)[Fuc(a1-2)Gal(b1-4)GlcNAc(b1-3)Gal(b1-4)GlcNAc(b1-2)Man(a1-6)]Man(b1-4)GlcNAc(b1-4)GlcNAc
# Outline: (§1)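 The binding signal is a Z-score computed within each array. Data were drawn from 3228 arrays in the Consortium for Functional Glycomics database, restricted to those with a known protein sequence. Scores were averaged over arrays of the same protein sequence at different concentrations or buffers, and over linkers, and negative values can be taken as non-binding.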
# [2] = target: Fuc(a1-2)Gal(b1-4)GlcNAc(b1-3)Gal(b1-4)GlcNAc(b1-3)Gal(b1-4)GlcNAc
# Outline: as §1
# [3] = target: Fuc(a1-2)Gal(b1-4)GlcNAc(b1-3)GalNAc
# Outline: as §1
# [4] = target: Fuc(a1-2)Gal(b1-4)GlcNAc(b1-3)[Fuc(a1-2)Gal(b1-4)GlcNAc(b1-6)]GalNAc
# Outline: as §1
# [5] = target: Fuc(a1-2)Gal(b1-4)GlcNAc(b1-3)[Fuc(a1-3)[Gal(b1-4)]GlcNAc(b1-6)]Gal(b1-4)Glc
# Outline: as §1
# [6] = target: Fuc(a1-2)Gal(b1-4)GlcNAc(b1-6)GalNAc
# Outline: as §1
# [7] = target: Fuc(a1-2)Gal(b1-4)GlcNAc6S
# Outline: as §1
# [8] = target: Fuc(a1-2)Gal(b1-4)[Fuc(a1-3)]GlcNAc
# Outline: as §1
# [9] = target: Fuc(a1-2)Gal(b1-4)[Fuc(a1-3)]GlcNAc(b1-2)Man(a1-3)[Fuc(a1-2)Gal(b1-4)[Fuc(a1-3)]GlcNAc(b1-2)Man(a1-6)]Man(b1-4)GlcNAc(b1-4)[Fuc(a1-6)]GlcNAc
# Outline: as §1
# [10] = target: Fuc(a1-2)Gal(b1-4)[Fuc(a1-3)]GlcNAc(b1-2)[Fuc(a1-2)Gal(b1-4)[Fuc(a1-3)]GlcNAc(b1-4)]Man(a1-3)[Fuc(a1-2)Gal(b1-4)[Fuc(a1-3)]GlcNAc(b1-2)Man(a1-6)]Man(b1-4)GlcNAc(b1-4)GlcNAc
# Outline: as §1
# [11] = target: Fuc(a1-2)Gal(b1-4)[Fuc(a1-3)]GlcNAc(b1-3)Gal(b1-4)[Fuc(a1-3)]GlcNAc
# Outline: as §1
# [12] = target: Fuc(a1-2)Gal(b1-4)[Fuc(a1-3)]GlcNAc(b1-3)Gal(b1-4)[Fuc(a1-3)]GlcNAc(b1-3)Gal(b1-4)[Fuc(a1-3)]GlcNAc
# Outline: as §1
# [13] = target: Fuc(a1-2)Gal(b1-4)[Fuc(a1-3)]GlcNAc(b1-3)GalNAc
# Outline: as §1
# [14] = target: Fuc(a1-2)Gal(b1-4)[Fuc(a1-3)]GlcNAc(b1-3)[Neu5Ac(a2-6)Gal(b1-4)GlcNAc(b1-6)]Gal(b1-4)Glc
# Outline: as §1
# [15] = target: Fuc(a1-2)Gal3S(b1-4)GlcNAc
# Outline: as §1
# [16] = target: Fuc(a1-2)Gal6S(b1-3)GlcNAc
# Outline: as §1
# [17] = target: Fuc(a1-2)Gal6S(b1-3)GlcNAc6S
# Outline: as §1
# Fuc(a1-2)Gal6S(b1-4)Glc = target: Fuc(a1-2)Gal6S(b1-4)Glc
# Outline: as §1
# [18] = target: Fuc(a1-2)Gal6S(b1-4)Glc6S
# Outline: as §1
# Fuc(a1-2)[Gal(a1-3)]Gal = target: Fuc(a1-2)[Gal(a1-3)]Gal
# Outline: as §1
# [19] = target: Fuc(a1-2)[Gal(a1-3)]Gal(b1-3)GalNAc
# Outline: as §1
# [20] = target: Fuc(a1-2)[Gal(a1-3)]Gal(b1-3)GalNAc(b1-3)Gal(a1-4)Gal(b1-4)Glc
# Outline: as §1
# [21] = target: Fuc(a1-2)[Gal(a1-3)]Gal(b1-3)GlcNAc
# Outline: as §1
# [22] = target: Fuc(a1-2)[Gal(a1-3)]Gal(b1-3)GlcNAc(b1-2)Man(a1-3)[Fuc(a1-2)[Gal(a1-3)]Gal(b1-3)GlcNAc(b1-2)Man(a1-6)]Man(b1-4)GlcNAc(b1-4)GlcNAc
# Outline: as §1
# [23] = target: Fuc(a1-2)[Gal(a1-3)]Gal(b1-3)GlcNAc(b1-2)Man(a1-3)[Fuc(a1-2)[Gal(a1-3)]Gal(b1-3)GlcNAc(b1-2)Man(a1-6)]Man(b1-4)GlcNAc(b1-4)[Fuc(a1-6)]GlcNAc
# Outline: as §1
# [24] = target: Fuc(a1-2)[Gal(a1-3)]Gal(b1-3)GlcNAc(b1-3)GalNAc
# Outline: as §1
# [25] = target: Fuc(a1-2)[Gal(a1-3)]Gal(b1-3)GlcNAc(b1-6)GalNAc
# Outline: as §1
# [26] = target: Fuc(a1-2)[Gal(a1-3)]Gal(b1-4)Glc
# Outline: as §1
# [27] = target: Fuc(a1-2)[Gal(a1-3)]Gal(b1-4)GlcNAc
# Outline: as §1
# [28] = target: Fuc(a1-2)[Gal(a1-3)]Gal(b1-4)GlcNAc(b1-2)Man
# Outline: as §1
binder,measurement,setting,value
B1,glycan array binding signal (z-score),[1],1.92
same,glycan array binding signal (z-score),[2],-0.17
same,glycan array binding signal (z-score),[3],-0.011
same,glycan array binding signal (z-score),[4],-0.056
same,glycan array binding signal (z-score),[5],-0.66
same,glycan array binding signal (z-score),[6],-0.508
same,glycan array binding signal (z-score),[7],0.041
same,glycan array binding signal (z-score),[8],-0.489
same,glycan array binding signal (z-score),[9],-0.302
same,glycan array binding signal (z-score),[10],-0.733
same,glycan array binding signal (z-score),[11],-0.565
same,glycan array binding signal (z-score),[12],-0.308
same,glycan array binding signal (z-score),[13],1.7
same,glycan array binding signal (z-score),[14],-0.08
same,glycan array binding signal (z-score),[15],0.306
same,glycan array binding signal (z-score),[16],0.1
same,glycan array binding signal (z-score),[17],-0.452
same,glycan array binding signal (z-score),Fuc(a1-2)Gal6S(b1-4)Glc,-0.528
same,glycan array binding signal (z-score),[18],0.08
same,glycan array binding signal (z-score),Fuc(a1-2)[Gal(a1-3)]Gal,-0.42
same,glycan array binding signal (z-score),[19],-0.028
same,glycan array binding signal (z-score),[20],0.342
same,glycan array binding signal (z-score),[21],-0.104
same,glycan array binding signal (z-score),[22],-0.88
same,glycan array binding signal (z-score),[23],-0.789
same,glycan array binding signal (z-score),[24],-0.033
same,glycan array binding signal (z-score),[25],-0.515
same,glycan array binding signal (z-score),[26],-0.689
same,glycan array binding signal (z-score),[27],0.443
same,glycan array binding signal (z-score),[28],-0.331

# As a short view, some entries already given:
binder,measurement,setting,value
B1,glycan array binding signal (z-score),[19],-0.028
same,glycan array binding signal (z-score),[20],0.342
